Results are given in words; binding and its absence hold for the method and conditions named. Binding seen in cells or lysates may run through a third protein. Binding calls can cover weak binding; strength is not graded here.
What was measured:
[1] = target: apolipoprotein E receptor 2 (ApoER2), endogenous in murine embryonic neurons (mouse (endogenous in embryonic neurons)) (UniProt Q924X6); experiment: co-IP; lysates of murine embryonic neurons (E15.5), endogenous proteins; immunoprecipitation with anti-EGFR or anti-ApoER2, Protein A Sepharose; Dab1 detected by blot; unrelated IgG as control
[2] = target: epidermal growth factor receptor (EGFR), endogenous in murine embryonic neurons (mouse (endogenous in embryonic neurons)) (UniProt Q01279); experiment: as above

Sequences of proteins named here, by UniProt entry; tags and fusion partners are left off. Residues count along the entry.
UniProt Q924X6, residues 29-996: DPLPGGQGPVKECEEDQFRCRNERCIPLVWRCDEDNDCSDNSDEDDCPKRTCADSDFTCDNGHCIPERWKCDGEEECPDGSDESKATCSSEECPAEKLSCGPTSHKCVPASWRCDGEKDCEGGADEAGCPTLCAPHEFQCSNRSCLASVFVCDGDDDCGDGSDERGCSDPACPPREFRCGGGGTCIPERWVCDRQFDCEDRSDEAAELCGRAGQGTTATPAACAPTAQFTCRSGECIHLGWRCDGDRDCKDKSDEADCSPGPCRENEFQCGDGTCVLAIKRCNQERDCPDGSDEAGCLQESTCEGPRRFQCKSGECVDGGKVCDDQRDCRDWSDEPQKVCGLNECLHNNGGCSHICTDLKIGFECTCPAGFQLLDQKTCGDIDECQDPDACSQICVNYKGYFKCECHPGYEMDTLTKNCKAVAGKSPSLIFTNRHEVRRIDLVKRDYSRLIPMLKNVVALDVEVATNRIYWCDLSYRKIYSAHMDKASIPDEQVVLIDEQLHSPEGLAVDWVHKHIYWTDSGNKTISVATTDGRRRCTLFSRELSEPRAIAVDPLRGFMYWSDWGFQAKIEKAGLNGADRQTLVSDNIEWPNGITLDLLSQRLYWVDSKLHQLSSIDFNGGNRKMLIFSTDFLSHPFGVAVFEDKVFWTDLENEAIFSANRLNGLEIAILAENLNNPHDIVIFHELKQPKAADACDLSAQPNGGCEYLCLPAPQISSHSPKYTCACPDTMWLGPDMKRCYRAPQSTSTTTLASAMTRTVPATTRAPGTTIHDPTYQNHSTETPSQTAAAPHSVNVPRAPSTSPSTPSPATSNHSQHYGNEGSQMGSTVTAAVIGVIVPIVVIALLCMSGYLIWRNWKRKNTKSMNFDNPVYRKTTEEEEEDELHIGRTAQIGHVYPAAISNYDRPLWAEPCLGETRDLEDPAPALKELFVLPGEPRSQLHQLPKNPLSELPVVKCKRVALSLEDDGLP

binding [1]: binds | binding [2]: binds weakly
Substance: Disabled 1 (Dab1), endogenous in murine embryonic neurons (from UniProt P97318-2)
